In paper doi:10.1101/572156:
No constants are given. Whether binding was seen depends on the method and setting. In cells and extracts the contact can be indirect. Here binding means that the protein was enriched with, or labelled near, the bait; the list need not be complete. Tags and fused reporters may be left off the sequences shown.

Experiments:
[1] = biological target: T1, FLAG-tagged DND1 1-235 dsRBD truncation mutant (human) (UniProt Q8IYX4); assay: affinity purification with mass spectrometry
T1 sequence: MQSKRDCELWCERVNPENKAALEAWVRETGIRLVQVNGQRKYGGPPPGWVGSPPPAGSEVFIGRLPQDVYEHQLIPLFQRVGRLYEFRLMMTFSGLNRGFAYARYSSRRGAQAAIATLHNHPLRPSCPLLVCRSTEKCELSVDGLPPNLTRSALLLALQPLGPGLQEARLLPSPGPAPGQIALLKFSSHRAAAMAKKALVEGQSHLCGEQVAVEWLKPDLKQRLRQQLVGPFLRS

[2] = biological target: T2, FLAG-tagged DND1 wild-type (full-length human Dead End, 1-353) (human) (UniProt Q8IYX4); assay: affinity purification with mass spectrometry
T2 sequence: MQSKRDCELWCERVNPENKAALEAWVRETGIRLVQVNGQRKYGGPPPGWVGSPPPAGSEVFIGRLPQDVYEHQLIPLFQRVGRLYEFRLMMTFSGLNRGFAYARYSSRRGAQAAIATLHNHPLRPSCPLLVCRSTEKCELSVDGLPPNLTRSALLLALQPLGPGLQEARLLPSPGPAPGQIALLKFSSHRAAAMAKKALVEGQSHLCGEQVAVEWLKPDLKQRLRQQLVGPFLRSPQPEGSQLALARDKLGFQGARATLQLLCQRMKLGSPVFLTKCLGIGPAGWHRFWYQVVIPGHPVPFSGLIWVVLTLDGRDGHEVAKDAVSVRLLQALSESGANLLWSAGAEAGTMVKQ

B1: MATR3 (protein, UniProt P43243 1-847)
chain: MSKSFQQSSLSRDSQGHGRDLSAAGIGLLAAATQSLSMPASLGRMNQGTARLASLMNLGMSSSLNQQGAHSALSSASTSSHNLQSIFNIGSRGPLPLSSQHRGDADQASNILASFGLSARDLDELSRYPEDKITPENLPQILLQLKRRRTEEGPTLSYGRDGRSATREPPYRVPRDDWEEKRHFRRDSFDDRGPSLNPVLDYDHGSRSQESGYYDRMDYEDDRLRDGERCRDDSFFGETSHNYHKFDSEYERMGRGPGPLQERSLFEKKRGAPPSSNIEDFHGLLPKGYPHLCSICDLPVHSNKEWSQHINGASHSRRCQLLLEIYPEWNPDNDTGHTMGDPFMLQQSTNPAPGILGPPPPSFHLGGPAVGPRGNLGAGNGNLQGPRHMQKGRVETSRVVHIMDFQRGKNLRYQLLQLVEPFGVISNHLILNKINEAFIEMATTEDAQAAVDYYTTTPALVFGKPVRVHLSQKYKRIKKPEGKPDQKFDQKQELGRVIHLSNLPHSGYSDSAVLKLAEPYGKIKNYILMRMKSQAFIEMETREDAMAMVDHCLKKALWFQGRCVKVDLSEKYKKLVLRIPNRGIDLLKKDKSRKRSYSPDGKESPSDKKSKTDGSQKTESSTEGKEQEEKSGEDGEKDTKDDQTEQEPNMLLESEDELLVDEEEAAALLESGSSVGDETDLANLGDVASDGKKEPSDKAVKKDGSASAAAKKKLKKVDKIEELDQENEAALENGIKNEENTEPGAESSENADDPNKDTSENADGQSDENKDDYTIPDEYRIGPYQPNVPVGIDYVIPKTGFYCKLCSLFYTNEEVAKNTHCSSLPHYQKLKKFLNKLAEERRQKKET
For B1, the binding [1] was “binds” and the binding [2] was “binds”.

B2: TRAP1 (protein, UniProt Q12931 60-704)
chain: STQTAEDKEEPLHSIISSTESVQGSTSKHEFQAETKKLLDIVARSLYSEKEVFIRELISNASDALEKLRHKLVSDGQALPEMEIHLQTNAEKGTITIQDTGIGMTQEELVSNLGTIARSGSKAFLDALQNQAEASSKIIGQFGVGFYSAFMVADRVEVYSRSAAPGSLGYQWLSDGSGVFEIAEASGVRTGTKIIIHLKSDCKEFSSEARVRDVVTKYSNFVSFPLYLNGRRMNTLQAIWMMDPKDVREWQHEEFYRYVAQAHDKPRYTLHYKTDAPLNIRSIFYVPDMKPSMFDVSRELGSSVALYSRKVLIQTKATDILPKWLRFIRGVVDSEDIPLNLSRELLQESALIRKLRDVLQQRLIKFFIDQSKKDAEKYAKFFEDYGLFMREGIVTATEQEVKEDIAKLLRYESSALPSGQLTSLSEYASRMRAGTRNIYYLCAPNRHLAEHSPYYEAMKKKDTEVLFCFEQFDELTLLHLREFDKKKLISVETDIVVDHYKEEKFEDRSPAAECLSEKETEELMAWMRNVLGSRVTNVKVTLRLDTHPAMVTVLEMGAARHFLRMQQLAKTQEERAQLLQPTLEINPRHALIKKLNQLRASEPGLAQLLVDQIYENAMIAAGLVDDPRAMVGRLNELLVKALERH
With B2 the binding [1] was “binds” and the binding [2] was “binds”.
